The nature of the series: in vitro. The settings on record: human, microsomes, % Remaining (NCF = 60 min).

Consider `CCCNCC(O)COc1ccccc1C(=O)CCc1ccccc1` (stereo not shown) [Propafenone, propafenone, reference compound], for which the fraction remaining at 1 h, 1 µM amounted to 104%.
